# Assay results as given in article PMC4115637 (Pharmacology Research & Perspectives, 2014).
# Target: T1, human TRPV3 (Homo sapiens, UniProt Q8NET8)
# T1 sequence (Q8NET8 1-790): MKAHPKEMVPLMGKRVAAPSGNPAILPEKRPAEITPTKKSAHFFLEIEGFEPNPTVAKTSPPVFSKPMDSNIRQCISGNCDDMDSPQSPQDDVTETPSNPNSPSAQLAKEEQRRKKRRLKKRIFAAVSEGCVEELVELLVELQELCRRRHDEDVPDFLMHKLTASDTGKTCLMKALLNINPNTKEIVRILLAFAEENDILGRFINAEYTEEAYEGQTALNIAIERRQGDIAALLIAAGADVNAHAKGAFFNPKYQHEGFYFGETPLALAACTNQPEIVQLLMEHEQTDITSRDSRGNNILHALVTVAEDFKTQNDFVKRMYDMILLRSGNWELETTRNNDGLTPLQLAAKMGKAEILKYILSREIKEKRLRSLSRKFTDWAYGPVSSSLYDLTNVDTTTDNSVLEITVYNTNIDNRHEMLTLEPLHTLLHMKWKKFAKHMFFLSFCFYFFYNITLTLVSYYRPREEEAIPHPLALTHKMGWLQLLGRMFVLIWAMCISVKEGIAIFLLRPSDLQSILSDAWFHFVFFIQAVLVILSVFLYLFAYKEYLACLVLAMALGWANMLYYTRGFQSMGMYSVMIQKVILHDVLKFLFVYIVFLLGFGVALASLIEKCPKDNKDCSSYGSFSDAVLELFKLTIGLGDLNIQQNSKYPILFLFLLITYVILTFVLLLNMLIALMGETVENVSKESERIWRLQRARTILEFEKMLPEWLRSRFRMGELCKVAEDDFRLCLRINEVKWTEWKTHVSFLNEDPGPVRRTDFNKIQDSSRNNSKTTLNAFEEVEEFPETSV
# Assay: Re-evaluation of screening hits as TRPV3 agonists
# Assay type: cell-based
structure (smiles),measurement,value
CCN(CC)CCOC(=O)C1(C2CCCCC2)CCCCC1 [dicyclomine],"TRPV3 agonist or antagonist activity, screening results",neither a TRPV3 agonist nor antagonist
